Sequences of proteins named here, by UniProt entry; tags and fusion partners are left off. Residues count along the entry.
UniProt P05556, residues 752-798: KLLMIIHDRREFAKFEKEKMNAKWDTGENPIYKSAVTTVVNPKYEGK

In publication PMC7035669:

Biological target: Integrin β1 (ITGβ1) cytoplasmic tail, wild type (UniProt P05556)
Assay: pull-down; ITGβ1 tails immobilised on beads; lysates of CHO cells transfected with full length FLNA-GFP; buffer XT with 10 mM imidazole, beads washed three times; only the target purified

binding: binds
Substance: Full length human FLNA with C-terminal GFP, ΔIg20 (from UniProt P21333-1)

No constants are given. Whether binding was seen depends on the method and setting. Binding seen in cells or lysates may run through a third protein. A result given as binding can be weak or reduced; the word gives no strength.
